Results are given in words; binding and its absence hold for the method and conditions named. For some of these results: A result given as binding can be weak or reduced; the word gives no strength.
How the values were obtained:
T25-MxdA (S. oneidensis) = target: T1, T25-MxdA (S. oneidensis) (UniProt Q8E9T3); assay: two-hybrid
T1 sequence: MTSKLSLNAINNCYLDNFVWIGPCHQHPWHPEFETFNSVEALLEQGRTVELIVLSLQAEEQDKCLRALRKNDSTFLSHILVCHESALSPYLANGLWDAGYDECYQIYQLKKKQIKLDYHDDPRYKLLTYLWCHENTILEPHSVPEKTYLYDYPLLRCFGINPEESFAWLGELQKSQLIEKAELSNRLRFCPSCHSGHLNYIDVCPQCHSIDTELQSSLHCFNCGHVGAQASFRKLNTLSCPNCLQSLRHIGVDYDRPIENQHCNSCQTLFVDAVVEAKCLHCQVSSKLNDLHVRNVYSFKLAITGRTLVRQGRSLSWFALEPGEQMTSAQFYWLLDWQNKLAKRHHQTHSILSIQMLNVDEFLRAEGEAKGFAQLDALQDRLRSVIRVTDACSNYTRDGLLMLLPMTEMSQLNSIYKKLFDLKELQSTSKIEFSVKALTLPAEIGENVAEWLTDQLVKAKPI

The chains behind the UniProt entries cited, without tags or fusion partners. Where a name states a change or a piece, a line headed by the entry shows the natural chain unless it says otherwise.
UniProt Q8ECD4: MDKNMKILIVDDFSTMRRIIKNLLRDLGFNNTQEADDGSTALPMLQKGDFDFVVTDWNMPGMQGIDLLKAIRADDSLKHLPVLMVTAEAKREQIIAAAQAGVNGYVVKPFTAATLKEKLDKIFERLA

[1] = target: His-tagged SO4207S (soluble cytoplasmic domain of SO4207, D388 to N625) (S. oneidensis) (UniProt Q8E9Q9); assay: cross-linking; Strep-tagged CheY3 (11.8 µM) and His-tagged SO4207S (3.1 µM), together or separately, 5 mM EDC, 1 h at room temperature, 10 mM cacodylate buffer; SDS-PAGE and blot with HisProbe-HRP; both purified
[2] = target: T25-SO4207 (cytoplasmic domain of SO4207, D388 to N625) (S. oneidensis); assay: two-hybrid
[3] = target: T25-SO4407 (S. oneidensis) (UniProt Q8E979); assay: two-hybrid

For T18-CheYVC (from UniProt A0A0H3AMJ9), the binding (T25-MxdA (S. oneidensis)) was “binds”.

In the case of “Strep-tagged CheY3 (from UniProt Q8ECD4)”, the binding [1] is reported as “binds”.

B1: T18-MxdA (protein, UniProt Q8E9T3 1-462)
chain: T1 sequence
For B1, the binding [2] was “no binding” and the binding [3] was “no binding”.

— publication PMC7666153, “The phosphorylated regulator of chemotaxis is crucial throughout biofilm biogenesis in Shewanella oneidensis” (NPJ Biofilms and Microbiomes, 2020)
